PubChem BioAssay AID504793 – Drosophila RNAi Screening Center – 2011

- Test: 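Knock-downs allowing continued mitosis even though DNA is damaged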 (primary screen)
- Cells: Drosophila S2R+ cells
- Knock-down reagent: long dsRNA against Drosophila genes, about 0.25 µg dsRNA per well
- Duration: 4 days of dsRNA, then 4 hours of drug before read-out
- Treatment: doxorubicin 0.5 µM for 4 hours to cause double-strand breaks, in cells also given a low, harmless dose of dsRNA against nbs to sensitise the assay
- Read-out: 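Mitotic index as the number of phospho-histone H3-positive cells in each well following doxorubicin, given as raw counts without normalisation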
- Reading the numbers: mitotic cells: higher = more cells in mitosis, weaker G2 arrest
- Hit rule: 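Genes are called active only when high mitotic counts were reproduced with independent dsRNAs and mitosis was checked for delay without damage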
- Meaning of the calls: active = confirmed in follow-up tests; inactive = not confirmed
In all, the deposit lists about 23,000 reagents; shown is a random part of those with a known target gene and a result. Of all reagents, 62 (0.27%) got an active call. 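Calls come from follow-up tests whose scores are not deposited, so confirmed genes may have low counts here; counts are not normalised per plate.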 Raw values are not corrected between plates. Entries without a mark were called inactive.

What did the screen give for omd (oocyte maintenance defects) [DRSC16507]?
mitotic cells, replicate 1: 8

With omd (oocyte maintenance defects) [DRSC29369], what was measured?
mitotic cells, replicate 1: 4

With Sgs8 (Salivary gland secretion 8) [DRSC11282], how do the results read?
mitotic cells, replicate 1: 10

With CG31871 [DRSC02567], how do the results read?
mitotic cells, replicate 1: 8

What is on record for CG31871 [DRSC02571]?
mitotic cells, replicate 1: 3

For CG31871 [DRSC26619], how do the results read?
mitotic cells, replicate 1: 3

How did the screen score Csp (Cysteine string protein) [DRSC11860]?
mitotic cells, replicate 1: 2

What is on record for CG3610 [DRSC15502]?
mitotic cells, replicate 1: 3

With CG3610 [DRSC27339], what was measured?
mitotic cells, replicate 1: 8

For Rac1 [DRSC08688], how do the results read?
mitotic cells, replicate 1: 5

For Rac1 [DRSC25131], how do the results read?
mitotic cells, replicate 1: 2

What did the screen give for Ykt6 (YKT6 v-SNARE) [DRSC17970]?
mitotic cells, replicate 1: 5

With Ykt6 (YKT6 v-SNARE) [DRSC26017], what does the deposit list?
mitotic cells, replicate 1: 5

What did the screen give for Tbc1d8-9 (TBC1 domain family member 8/9) [DRSC11820]?
mitotic cells, replicate 1: 3
